Some of the results follow.
How the values were obtained:
Experiment in all cases: log2 fold change, soluble protein after heating vs DMSO (PISA); higher = thermal stabilisation; K562 lysate, 10 uM; active = over 0.2 and 3.5 SD of the protein, either way, in both replicates (recomputed)
[1] = compound: CCCS(=O)(=O)Nc1ccc(F)c(C(=O)c2c[nH]c3ncc(Cl)cc23)c1F
Summary of the method: (§1)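 K562 pellets were dounce-homogenised in PBS pH 7.4 with 1 mM MgCl2, and the crude extract at 1 mg/mL protein was treated with 10 μM compound for 30 min. Aliquots were heated for 3 min across 48°C-58°C, pooled, and brought to 0.5% NP-40 at 4°C; soluble protein was the supernatant after 21,000xg for 90 min. Soluble protein was quantified by TMTpro 16plex LC-MS/MS with channel sums equalised, and reported as log2 fold change in thermal stability against DMSO controls, with values from duplicates.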

Protein sequences, listed by entry. Tags and fused reporters are not part of them. Lines headed by an entry give the natural chain unless they say otherwise; changes in a name come on top.
UniProt P63302, whole entry, looked up: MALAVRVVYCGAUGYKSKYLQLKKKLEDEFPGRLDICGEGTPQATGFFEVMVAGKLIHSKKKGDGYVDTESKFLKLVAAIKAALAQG
UniProt Q6SZW1: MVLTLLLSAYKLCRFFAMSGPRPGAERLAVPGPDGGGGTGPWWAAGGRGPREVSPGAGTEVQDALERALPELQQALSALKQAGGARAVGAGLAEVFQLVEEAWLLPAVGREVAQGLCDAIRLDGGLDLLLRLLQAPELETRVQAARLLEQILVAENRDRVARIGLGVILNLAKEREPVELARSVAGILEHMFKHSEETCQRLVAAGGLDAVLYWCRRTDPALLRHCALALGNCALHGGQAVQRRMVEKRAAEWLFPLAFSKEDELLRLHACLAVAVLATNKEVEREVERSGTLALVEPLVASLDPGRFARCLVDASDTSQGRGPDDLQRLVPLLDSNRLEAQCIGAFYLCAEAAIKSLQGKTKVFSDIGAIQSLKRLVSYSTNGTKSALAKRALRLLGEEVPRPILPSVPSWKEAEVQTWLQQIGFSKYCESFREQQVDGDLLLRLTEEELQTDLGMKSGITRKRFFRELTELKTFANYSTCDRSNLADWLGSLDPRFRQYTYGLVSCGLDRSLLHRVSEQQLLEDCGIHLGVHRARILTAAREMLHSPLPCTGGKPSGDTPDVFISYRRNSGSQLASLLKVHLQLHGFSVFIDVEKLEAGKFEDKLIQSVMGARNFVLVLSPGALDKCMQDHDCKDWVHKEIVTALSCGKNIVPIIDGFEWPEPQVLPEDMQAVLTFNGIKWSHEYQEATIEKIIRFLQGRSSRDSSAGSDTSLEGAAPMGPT
UniProt O75056, whole entry, looked up: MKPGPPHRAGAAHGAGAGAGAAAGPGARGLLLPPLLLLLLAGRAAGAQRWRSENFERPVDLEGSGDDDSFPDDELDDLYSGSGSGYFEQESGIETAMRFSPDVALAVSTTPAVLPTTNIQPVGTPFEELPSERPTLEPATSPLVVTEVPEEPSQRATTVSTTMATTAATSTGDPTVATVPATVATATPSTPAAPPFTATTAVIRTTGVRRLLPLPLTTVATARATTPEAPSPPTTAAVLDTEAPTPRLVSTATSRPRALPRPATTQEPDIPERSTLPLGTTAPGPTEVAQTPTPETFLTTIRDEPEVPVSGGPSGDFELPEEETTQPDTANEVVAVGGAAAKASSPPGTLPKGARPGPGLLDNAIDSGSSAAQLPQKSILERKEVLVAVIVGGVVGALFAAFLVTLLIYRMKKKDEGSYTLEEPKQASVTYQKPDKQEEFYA
UniProt O75845: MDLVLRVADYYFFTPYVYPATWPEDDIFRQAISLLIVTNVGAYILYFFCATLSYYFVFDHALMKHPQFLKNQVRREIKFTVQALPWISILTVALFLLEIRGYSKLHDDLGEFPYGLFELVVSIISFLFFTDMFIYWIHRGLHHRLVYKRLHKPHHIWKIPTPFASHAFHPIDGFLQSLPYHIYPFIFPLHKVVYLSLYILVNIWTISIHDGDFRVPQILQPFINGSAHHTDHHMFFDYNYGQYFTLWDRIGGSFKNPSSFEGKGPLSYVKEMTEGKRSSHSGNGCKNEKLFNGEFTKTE
UniProt Q8WWX9, whole entry, looked up: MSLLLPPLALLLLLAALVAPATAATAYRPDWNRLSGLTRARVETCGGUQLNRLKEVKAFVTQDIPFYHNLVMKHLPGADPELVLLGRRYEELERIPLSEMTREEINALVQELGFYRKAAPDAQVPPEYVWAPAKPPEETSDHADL
UniProt P60896: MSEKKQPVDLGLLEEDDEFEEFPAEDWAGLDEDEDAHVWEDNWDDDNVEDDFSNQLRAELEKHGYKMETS
UniProt Q99470: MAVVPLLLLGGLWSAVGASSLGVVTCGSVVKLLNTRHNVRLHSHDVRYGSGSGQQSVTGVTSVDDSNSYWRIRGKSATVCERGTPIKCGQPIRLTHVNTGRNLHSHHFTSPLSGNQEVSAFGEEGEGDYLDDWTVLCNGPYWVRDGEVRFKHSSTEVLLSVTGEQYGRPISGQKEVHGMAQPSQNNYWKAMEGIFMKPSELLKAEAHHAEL
UniProt Q6UWP8: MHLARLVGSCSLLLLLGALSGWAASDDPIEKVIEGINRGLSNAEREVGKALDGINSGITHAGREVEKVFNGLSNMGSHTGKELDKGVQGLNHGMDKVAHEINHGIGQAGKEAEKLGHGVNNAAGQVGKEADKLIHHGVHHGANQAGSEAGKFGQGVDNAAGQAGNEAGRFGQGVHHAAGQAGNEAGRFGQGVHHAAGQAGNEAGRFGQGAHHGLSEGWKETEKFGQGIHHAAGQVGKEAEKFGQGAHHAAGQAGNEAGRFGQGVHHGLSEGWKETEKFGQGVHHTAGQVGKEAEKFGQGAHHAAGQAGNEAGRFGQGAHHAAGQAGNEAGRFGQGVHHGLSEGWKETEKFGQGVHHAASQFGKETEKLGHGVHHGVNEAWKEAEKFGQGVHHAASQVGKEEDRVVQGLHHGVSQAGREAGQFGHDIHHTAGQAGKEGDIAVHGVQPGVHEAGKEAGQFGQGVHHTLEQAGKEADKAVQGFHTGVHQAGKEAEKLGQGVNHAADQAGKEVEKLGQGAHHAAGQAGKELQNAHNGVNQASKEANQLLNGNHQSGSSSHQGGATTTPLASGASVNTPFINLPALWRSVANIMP
UniProt Q9NXZ1: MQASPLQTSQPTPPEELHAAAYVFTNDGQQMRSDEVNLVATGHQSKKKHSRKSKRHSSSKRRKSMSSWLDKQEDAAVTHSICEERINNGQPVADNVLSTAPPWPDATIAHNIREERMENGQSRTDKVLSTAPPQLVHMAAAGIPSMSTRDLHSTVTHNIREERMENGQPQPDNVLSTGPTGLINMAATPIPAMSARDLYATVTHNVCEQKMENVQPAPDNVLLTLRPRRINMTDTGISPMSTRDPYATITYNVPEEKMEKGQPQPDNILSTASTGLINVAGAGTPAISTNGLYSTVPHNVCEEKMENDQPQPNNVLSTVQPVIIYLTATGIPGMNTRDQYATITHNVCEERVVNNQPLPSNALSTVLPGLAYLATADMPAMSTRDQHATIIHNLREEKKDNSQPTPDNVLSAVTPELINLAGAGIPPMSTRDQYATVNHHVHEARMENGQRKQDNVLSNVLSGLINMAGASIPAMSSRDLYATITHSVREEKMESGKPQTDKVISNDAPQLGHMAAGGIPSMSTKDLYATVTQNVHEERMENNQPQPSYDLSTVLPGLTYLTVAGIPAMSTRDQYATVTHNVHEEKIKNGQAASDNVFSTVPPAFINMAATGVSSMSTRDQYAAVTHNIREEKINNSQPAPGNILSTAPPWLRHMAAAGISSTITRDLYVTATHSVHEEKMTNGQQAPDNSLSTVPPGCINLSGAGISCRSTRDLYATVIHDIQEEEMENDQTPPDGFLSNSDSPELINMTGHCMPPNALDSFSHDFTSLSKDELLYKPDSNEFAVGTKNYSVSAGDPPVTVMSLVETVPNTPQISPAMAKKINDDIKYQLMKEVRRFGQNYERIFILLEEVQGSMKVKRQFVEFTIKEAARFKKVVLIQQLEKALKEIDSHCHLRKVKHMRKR
UniProt Q9BVL4, whole entry, looked up: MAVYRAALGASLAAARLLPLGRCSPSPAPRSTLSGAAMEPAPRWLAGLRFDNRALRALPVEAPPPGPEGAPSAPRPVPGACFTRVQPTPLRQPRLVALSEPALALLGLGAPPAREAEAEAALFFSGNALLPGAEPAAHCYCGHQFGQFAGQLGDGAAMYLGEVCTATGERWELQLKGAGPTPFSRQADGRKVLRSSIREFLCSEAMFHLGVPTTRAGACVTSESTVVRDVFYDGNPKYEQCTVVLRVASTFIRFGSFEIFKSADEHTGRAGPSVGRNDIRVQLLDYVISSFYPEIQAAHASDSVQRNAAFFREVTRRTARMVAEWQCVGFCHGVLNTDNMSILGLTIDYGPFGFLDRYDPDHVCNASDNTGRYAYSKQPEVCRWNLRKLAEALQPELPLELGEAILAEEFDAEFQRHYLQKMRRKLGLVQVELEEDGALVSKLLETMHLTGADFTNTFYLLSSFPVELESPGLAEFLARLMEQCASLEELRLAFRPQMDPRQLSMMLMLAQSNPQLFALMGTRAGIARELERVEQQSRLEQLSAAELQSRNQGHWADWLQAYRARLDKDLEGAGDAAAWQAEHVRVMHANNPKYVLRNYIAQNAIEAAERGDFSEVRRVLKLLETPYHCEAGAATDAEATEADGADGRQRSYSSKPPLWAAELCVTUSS
UniProt Q9UIL1: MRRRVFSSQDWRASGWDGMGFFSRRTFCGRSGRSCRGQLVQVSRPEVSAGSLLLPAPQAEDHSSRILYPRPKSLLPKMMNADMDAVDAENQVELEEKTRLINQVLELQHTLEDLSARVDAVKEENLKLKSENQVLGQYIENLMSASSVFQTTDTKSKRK
UniProt O95968: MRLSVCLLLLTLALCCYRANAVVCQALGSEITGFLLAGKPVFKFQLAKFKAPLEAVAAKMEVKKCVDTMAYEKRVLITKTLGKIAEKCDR
UniProt Q9BQF6: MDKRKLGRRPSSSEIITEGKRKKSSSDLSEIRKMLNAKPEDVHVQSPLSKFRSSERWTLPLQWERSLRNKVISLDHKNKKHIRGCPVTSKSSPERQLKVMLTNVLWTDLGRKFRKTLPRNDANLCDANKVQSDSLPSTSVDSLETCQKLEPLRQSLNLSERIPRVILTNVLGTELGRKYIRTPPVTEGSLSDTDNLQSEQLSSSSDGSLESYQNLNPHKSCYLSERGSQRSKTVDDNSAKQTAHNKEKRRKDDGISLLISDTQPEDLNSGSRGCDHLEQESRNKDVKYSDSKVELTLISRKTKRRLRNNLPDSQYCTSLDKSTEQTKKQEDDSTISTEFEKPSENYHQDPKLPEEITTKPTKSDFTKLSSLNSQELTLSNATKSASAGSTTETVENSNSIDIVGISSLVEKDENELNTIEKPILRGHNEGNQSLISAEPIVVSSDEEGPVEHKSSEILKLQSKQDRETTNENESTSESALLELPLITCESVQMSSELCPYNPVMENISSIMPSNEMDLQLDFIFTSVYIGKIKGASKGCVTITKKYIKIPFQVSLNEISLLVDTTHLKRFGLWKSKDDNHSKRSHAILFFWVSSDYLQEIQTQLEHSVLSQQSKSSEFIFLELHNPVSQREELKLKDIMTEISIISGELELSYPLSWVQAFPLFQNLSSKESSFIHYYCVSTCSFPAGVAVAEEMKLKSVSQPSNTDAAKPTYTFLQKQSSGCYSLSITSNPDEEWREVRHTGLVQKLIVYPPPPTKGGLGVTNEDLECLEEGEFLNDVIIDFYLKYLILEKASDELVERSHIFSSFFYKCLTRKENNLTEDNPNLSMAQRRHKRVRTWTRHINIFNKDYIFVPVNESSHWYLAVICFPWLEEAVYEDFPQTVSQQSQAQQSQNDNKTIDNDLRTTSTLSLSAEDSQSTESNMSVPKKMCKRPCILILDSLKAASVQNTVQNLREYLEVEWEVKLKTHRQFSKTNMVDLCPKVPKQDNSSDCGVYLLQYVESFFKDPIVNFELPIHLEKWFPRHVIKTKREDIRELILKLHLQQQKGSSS
UniProt Q96LT4: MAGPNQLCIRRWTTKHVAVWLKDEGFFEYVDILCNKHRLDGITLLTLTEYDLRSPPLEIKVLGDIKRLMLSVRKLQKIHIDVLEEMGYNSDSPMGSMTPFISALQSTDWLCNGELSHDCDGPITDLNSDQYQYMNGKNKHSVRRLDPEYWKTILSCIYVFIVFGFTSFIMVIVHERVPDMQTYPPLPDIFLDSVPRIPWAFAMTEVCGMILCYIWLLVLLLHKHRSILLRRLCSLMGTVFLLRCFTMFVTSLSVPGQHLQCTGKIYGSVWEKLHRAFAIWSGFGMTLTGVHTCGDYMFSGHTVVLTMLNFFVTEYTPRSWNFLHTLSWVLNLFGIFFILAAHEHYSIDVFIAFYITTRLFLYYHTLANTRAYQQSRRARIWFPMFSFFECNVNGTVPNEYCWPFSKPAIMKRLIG
UniProt A6NKF1: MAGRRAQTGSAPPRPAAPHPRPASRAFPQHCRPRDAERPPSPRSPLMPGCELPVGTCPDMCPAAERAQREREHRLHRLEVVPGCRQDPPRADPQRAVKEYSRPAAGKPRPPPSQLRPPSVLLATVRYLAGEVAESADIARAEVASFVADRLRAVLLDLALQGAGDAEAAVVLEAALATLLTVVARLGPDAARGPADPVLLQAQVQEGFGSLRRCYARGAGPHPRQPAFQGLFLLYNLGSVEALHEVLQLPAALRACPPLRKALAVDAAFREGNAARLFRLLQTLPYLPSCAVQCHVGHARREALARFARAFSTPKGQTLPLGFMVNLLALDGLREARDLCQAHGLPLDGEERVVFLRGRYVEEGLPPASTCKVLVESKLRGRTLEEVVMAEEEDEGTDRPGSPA
UniProt Q9BWG6: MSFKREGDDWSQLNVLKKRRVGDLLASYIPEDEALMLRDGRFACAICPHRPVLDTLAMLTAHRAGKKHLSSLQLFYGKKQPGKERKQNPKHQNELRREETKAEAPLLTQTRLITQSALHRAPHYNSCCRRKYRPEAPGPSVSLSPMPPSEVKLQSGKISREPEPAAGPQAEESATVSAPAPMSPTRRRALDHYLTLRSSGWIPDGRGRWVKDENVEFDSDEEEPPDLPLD

volasertib = compound: CC[C@@H]1C(=O)N(C)c2cnc(Nc3ccc(C(=O)N[C@H]4CC[C@H](N5CCN(CC6CC6)CC5)CC4)cc3OC)nc2N1C(C)C [volasertib]
Summary of the method: as §1

[2] = compound: CCn1c(C(=O)N(C2CC2)C2CC2)cc2c3c(ncn3C)c(Nc3cc(C)n(C)n3)nc21
Summary of the method: as §1

[3] = compound: CCn1cc(-c2ccnc3[nH]c(-c4cccc(CN(C)C)c4)cc23)c(-c2ccc(NC(=O)N(C)C)cc2)n1
Summary of the method: as §1

[4] = compound: CN1CCC(CNc2ccc3ncc(-c4cccc(OC(F)(F)F)c4)n3n2)CC1
Summary of the method: as §1

sotrastaurin = compound: CN1CCN(c2nc(C3=C(c4c[nH]c5ccccc45)C(=O)NC3=O)c3ccccc3n2)CC1 [sotrastaurin]
Summary of the method: as §1

alvocidib = compound: CN1CC[C@H](c2c(O)cc(O)c3c(=O)cc(-c4ccccc4Cl)oc23)[C@H](O)C1 [alvocidib]
Summary of the method: as §1

Tubastatin A = compound: CN1CCc2c(c3ccccc3n2Cc2ccc(C(=O)NO)cc2)C1 [Tubastatin A]
Summary of the method: as §1

[5] = compound: COc1cc2nc(-c3cc(F)ccc3O)nc(N[C@@H]3CNC[C@H]3C(C)(C)O)c2cc1OC
Summary of the method: as §1

[6] = compound: CNC(=O)C1=CC=CC=C1NC2=NC(=NC=C2Cl)NC3=C(C=C(C=C3)N4CCOCC4)OC
Summary of the method: as §1

alisertib = compound: COc1cc(Nc2ncc3c(n2)-c2ccc(Cl)cc2C(c2c(F)cccc2OC)=NC3)ccc1C(=O)O [alisertib]
Summary of the method: as §1

gefitinib = compound: COc1cc2ncnc(Nc3ccc(F)c(Cl)c3)c2cc1OCCCN1CCOCC1 [gefitinib]
Summary of the method: as §1

saracatinib = compound: CN1CCN(CCOc2cc(OC3CCOCC3)c3c(Nc4c(Cl)ccc5c4OCO5)ncnc3c2)CC1 [saracatinib]
Summary of the method: as §1

[7] = compound: CNc1nc(-c2ccc3c(N)n[nH]c3c2)cc(N2C[C@@H](C(=O)NC3CCCCC3)CC[C@H]2C)n1
Summary of the method: as §1

[8] = compound: CC[C@@H]1C(=O)N(C)c2cnc(Nc3ccc(C(=O)NC4CCN(C)CC4)cc3OC)nc2N1C1CCCC1
Summary of the method: as §1

encorafenib = compound: COC(=O)N[C@@H](C)CNc1nccc(-c2cn(C(C)C)nc2-c2cc(Cl)cc(NS(C)(=O)=O)c2F)n1 [encorafenib]
Summary of the method: as §1

[9] = compound: COC(=O)[C@H](CCSC)NC(=O)C1=C(C=C(C=C1)NC[C@H](CS)N)C2=CC=CC=C2
Summary of the method: as §1

barasertib = compound: CCN(CCCOc1ccc2c(Nc3cc(CC(=O)Nc4cccc(F)c4)[nH]n3)ncnc2c1)CCOP(=O)(O)O [barasertib]
Summary of the method: as §1

Measured: log2 fold change

SELENOW (UniProt P63302)
inactive: [1] 0.05 | volasertib 0.079 | [2] -0.021 | [3] -0.087 | [4] 0.214 | sotrastaurin 0.104 | alvocidib -0.069 | Tubastatin A 0 | [5] -0.008

SARM1 (UniProt Q6SZW1)
inactive: [1] 0.054 | volasertib -0.061 | [3] -0.227 | [4] 0 | alvocidib 0.058 | [6] -0.144 | alisertib 0.144 | [5] 0.104 | gefitinib -0.04

SELPLG isoform 2 (UniProt Q14242)
inactive: [1] -0.076 | volasertib 0.01 | [5] 0.028

SDC3 (UniProt O75056)
inactive: [2] -0.045 | saracatinib 0.035 | sotrastaurin 0.098 | Tubastatin A -0.031 | [6] 0.071 | [7] -0.041

SDCCAG8 (UniProt S4R323)
inactive: [2] 0.056 | sotrastaurin -0.272 | Tubastatin A -0.163 | [6] 0.14

SC5D (UniProt O75845)
inactive: [1] 0.033 | [8] 0.056 | volasertib 0.008 | [3] -0.061 | [4] 0.079 | sotrastaurin 0.061 | alvocidib -0.036 | encorafenib 0.009 | [9] -0.108 | [5] -0.028

SELENOM (UniProt Q8WWX9)
inactive: [1] -0.122 | volasertib 0.039 | [2] -0.081 | sotrastaurin 0.02 | Tubastatin A 0.138 | [5] -0.258

SACS (UniProt Q9NZJ4)
inactive: alisertib -0.133 | gefitinib 0.025

SCARB2 isoform 2 (UniProt Q14108)
inactive: [1] -0.063 | barasertib -0.085 | volasertib 0.052 | [3] -0.156 | [4] 0.069 | saracatinib -0.025 | alvocidib 0.029 | [7] 0.36 | alisertib -0.002 | [5] 0.076 | gefitinib 0.032

SEM1 (UniProt P60896)
inactive: [6] 0.04

SDF2 (UniProt Q99470)
inactive: [1] 0.067 | barasertib -0.305 | volasertib -0.057 | sotrastaurin 0.003 | alisertib 0.133 | [5] 0.211 | gefitinib -0.071

SBSN (UniProt Q6UWP8)
inactive: [3] -0.008 | [4] -0.235 | alvocidib 0.255 | [6] -0.162

SAGE1 (UniProt Q9NXZ1)
inactive: [8] 0.018 | [2] 0.014 | [3] -0.077 | [4] -0.134 | saracatinib 0.205 | sotrastaurin -0.036 | alvocidib 0.081 | Tubastatin A 0.046 | [6] 0.059 | [7] 0.093 | encorafenib -0.005 | [9] -0.048 | alisertib 0.038 | gefitinib -0.082

SELENOO (UniProt Q9BVL4)
inactive: [1] 0.006 | volasertib 0.042 | [2] 0.122 | [3] 0.146 | [4] 0.113 | saracatinib 0.14 | alvocidib 0.094 | Tubastatin A -0.411 | [7] 0.087 | alisertib 0.064 | [5] -0.094 | gefitinib -0.063

SAMD9 (UniProt Q5K651)
inactive: [1] -0.026 | [8] 0.169 | volasertib -0.095 | [2] 0.084 | [3] -0.206 | [4] 0.069 | sotrastaurin -0.044 | alvocidib 0.029 | Tubastatin A -0.015 | encorafenib 0.07 | [9] -0.046 | alisertib 0.017 | [5] 0.067 | gefitinib -0.03

SAMD1 (UniProt Q6SPF0)
inactive: [1] -0.007 | [8] -0.067 | volasertib -0.065 | [2] 0.016 | [3] 0.009 | [4] -0.397 | saracatinib -0.094 | sotrastaurin 0.065 | alvocidib -0.065 | Tubastatin A -0.057 | [7] -0.086 | encorafenib 0.103 | [9] -0.039 | alisertib -0.073 | [5] -0.029 | gefitinib -0.037

SCOC (UniProt Q9UIL1)
inactive: [2] -0.131 | saracatinib 0.086 | sotrastaurin -0.185 | Tubastatin A 0.257 | [6] -0.067 | [7] 0.01

SCGB1D1 (UniProt O95968)
inactive: [6] 0.3

SCAND1 (UniProt P57086)
inactive: [2] -0.003 | sotrastaurin 0.003 | Tubastatin A -0.094

Two neighbouring entries already listed:
SCOC (UniProt Q9UIL1)
inactive: [2] -0.131 | saracatinib 0.086 | sotrastaurin -0.185 | Tubastatin A 0.257 | [6] -0.067 | [7] 0.01

SCGB1D1 (UniProt O95968)
inactive: [6] 0.3

(list continues)

SALL1 (UniProt Q9NSC2)
inactive: [8] 0.174 | [3] 0.75 | [4] -0.228 | alvocidib 0.202 | encorafenib 0.086 | [9] -0.077 | alisertib 0.226 | gefitinib -0.055

SEPTIN8 (UniProt F8W8I8)
inactive: [1] -0.019 | volasertib -0.033 | [2] -0.076 | [3] -0.291 | [4] 0.158 | saracatinib 0.022 | alvocidib -0.136 | Tubastatin A 0.053 | [6] 0.026 | [7] 0.087 | alisertib 0.041 | [5] 0.019 | gefitinib -0.021

Looked up one by one from the entries so far, 2 records:
SACS (UniProt Q9NZJ4)
inactive: alisertib -0.133 | gefitinib 0.025

SCARB2 isoform 2 (UniProt Q14108)
inactive: [1] -0.063 | barasertib -0.085 | volasertib 0.052 | [3] -0.156 | [4] 0.069 | saracatinib -0.025 | alvocidib 0.029 | [7] 0.36 | alisertib -0.002 | [5] 0.076 | gefitinib 0.032

Carrying on:

SENP7 (UniProt Q9BQF6)
inactive: [8] -0.026 | [2] -0.085 | [3] -0.322 | [4] 0.06 | saracatinib -0.113 | sotrastaurin 0.164 | alvocidib 0 | Tubastatin A -0.152 | [7] 0.016 | encorafenib 0.109 | [9] -0.045 | alisertib -0.036 | gefitinib 0.009

SAMD8 (UniProt Q96LT4)
inactive: [2] 0.111 | Tubastatin A 0.064 | [6] -0.043

SAC3D1 (UniProt A6NKF1)
inactive: barasertib 0.057 | [3] 0.131 | [4] -0.268 | sotrastaurin 0.052 | alvocidib 0.272 | alisertib -0.102 | gefitinib -0.039

SAV1 (UniProt Q9H4B6)
inactive: alisertib -0.067 | gefitinib -0.013

SDCBP isoform 2 (UniProt O00560)
inactive: barasertib -0.053 | [2] -0.126 | [3] 0.041 | [4] -0.191 | saracatinib -0.221 | sotrastaurin 0.03 | alvocidib -0.279 | Tubastatin A 0.113 | [6] -0.12 | [7] 0.097 | alisertib -0.105 | gefitinib -0.06

SCNM1 (UniProt Q9BWG6)
inactive: [1] 0.012 | [8] 0.122 | [2] 0.099 | [3] -0.033 | [4] -0.005 | saracatinib -0.092 | sotrastaurin -0.023 | alvocidib -0.005 | Tubastatin A 0.035 | [6] 0.117 | [7] 0.127 | encorafenib 0.115 | [9] -0.311 | alisertib 0.035 | [5] 0.15 | gefitinib 0.114
active: volasertib 0.372

SELENON (UniProt Q9NZV5)
inactive: saracatinib -0.328 | [6] -0.034 | [7] -0.293

SENP2 (UniProt Q9HC62)
inactive: alisertib -0.075 | gefitinib -0.011

SEC16A isoform 3 (UniProt O15027)
inactive: [2] 0.231 | saracatinib 0.068 | Tubastatin A -0.008 | [7] 0.023

SAP30L (UniProt Q9HAJ7)
inactive: [2] 0.068 | sotrastaurin 0.021 | Tubastatin A 0.235 | [6] -0.08
